Source: article PMC8625570
These are yes or no findings as the source states them, for the method shown. Binding can be weak; no strength is given.

Amino acid sequences for entries named in this document (tags omitted). A change or cut given only in a name is not applied to a line headed by its entry. Residues count along the entry.
UniProt P60953: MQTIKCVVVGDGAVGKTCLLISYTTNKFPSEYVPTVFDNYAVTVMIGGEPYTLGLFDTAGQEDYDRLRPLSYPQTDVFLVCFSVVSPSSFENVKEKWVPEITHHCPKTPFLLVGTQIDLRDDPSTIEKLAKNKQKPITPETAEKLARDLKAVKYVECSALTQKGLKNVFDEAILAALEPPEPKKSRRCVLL
UniProt P46940, residues 863-1657: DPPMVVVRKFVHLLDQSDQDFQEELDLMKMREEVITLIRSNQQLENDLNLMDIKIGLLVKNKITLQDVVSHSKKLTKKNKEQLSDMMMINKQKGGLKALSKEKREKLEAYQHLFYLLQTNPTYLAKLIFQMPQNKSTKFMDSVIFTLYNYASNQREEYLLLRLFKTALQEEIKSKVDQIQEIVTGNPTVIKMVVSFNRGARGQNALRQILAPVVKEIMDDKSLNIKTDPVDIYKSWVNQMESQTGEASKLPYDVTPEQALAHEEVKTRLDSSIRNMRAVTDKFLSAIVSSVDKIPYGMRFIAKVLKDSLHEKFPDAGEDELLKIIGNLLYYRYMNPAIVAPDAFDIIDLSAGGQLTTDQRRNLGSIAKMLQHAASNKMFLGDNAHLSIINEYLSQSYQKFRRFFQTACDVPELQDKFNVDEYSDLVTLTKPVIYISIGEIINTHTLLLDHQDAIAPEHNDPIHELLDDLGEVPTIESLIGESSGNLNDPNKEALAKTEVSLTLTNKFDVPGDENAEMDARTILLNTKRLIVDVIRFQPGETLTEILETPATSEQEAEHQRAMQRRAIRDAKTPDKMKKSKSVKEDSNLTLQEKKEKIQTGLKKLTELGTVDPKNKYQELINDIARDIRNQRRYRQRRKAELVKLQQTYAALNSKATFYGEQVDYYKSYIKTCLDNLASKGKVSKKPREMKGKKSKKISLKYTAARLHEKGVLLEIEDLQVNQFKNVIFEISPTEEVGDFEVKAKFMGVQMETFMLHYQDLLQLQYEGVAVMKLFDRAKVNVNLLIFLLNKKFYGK

Target: CDC42 M45E/N52E (so in the source); residue 52 of CDC42 is given as T52 in the discussion) (human) (UniProt P60953)
Assay: stopped-flow fluorescence spectrometry; kon from 0.2 µM mGppNHp-bound RHO GTPase with 2-8 µM IQGAP1^C794; koff by displacing with 10 µM unlabeled RAC1-GppNHp from 2 µM IQGAP1^C794 with 0.2 µM GTPase; Kd calculated from the rate constants; 25 °C; both purified

binding: binds
Substance: IQGAP1^C794 (C-terminal half of human IQGAP1 with the GRD, RGCT and CT domains) (from UniProt P46940 863-1657) (domain or fragment)
